PubChem BioAssay AID652243 | Drosophila RNAi Screening Center – 2013

- Assay: 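Knock-downs that decrease or increase androgen receptor reporter signal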 (primary screen)
- Cell system: Drosophila S2R+ cells
- Reagent: long dsRNA against Drosophila genes
- Time to read-out: 72 h (48 h, then 24 h hormone)
- Treatment: synthetic androgen R1881 at 10 nM for 24 h
- Detection: 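Firefly light from an androgen-responsive reporter and Renilla control light per well, raw and unnormalised, for each of two replicates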
- Scale: firefly reporter light: higher = more light from androgen-responsive reporter; Renilla control light: higher = more constitutive control signal (cell number, transfection)
- Call rule: 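Across duplicate plates, a knock-down whose log firefly/Renilla ratio shifted a set fold down or up from the GFP/LacZ control mean was a hit; the downward cut appears as both 1.5 and 3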
- Calls: active = hit: reporter lowered or raised; inactive = no hit
The deposit covers about 24,000 reagents; this is a random part of those that have a named target and a result. Of all reagents, 246 (1%) are marked active. 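Plates not normalised; calls are printed but the firefly/Renilla ratio behind them is not deposited; fold cut for lowering reported inconsistently.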 The raw values are shown without normalisation. Reagents against one gene are numbered here. A plus sign joins genes that one reagent is predicted to hit. Not given: the amount of reagent.

With knock-down of CG5500 #1 the results were firefly reporter light, replicate 1 = 2.23e5; firefly reporter light, replicate 2 = 2.03e5; Renilla control light, replicate 1 = 2.33e6; Renilla control light, replicate 2 = 3.26e6; inactive.
Against CG5500 #2, the entry reads firefly reporter light, replicate 1 = 4.79e5; firefly reporter light, replicate 2 = 2.84e5; Renilla control light, replicate 1 = 6.81e5; Renilla control light, replicate 2 = 6.81e5; inactive.
With knock-down of CG30393 #1 the results were firefly reporter light, replicate 1 = 3.99e5; firefly reporter light, replicate 2 = 3.38e5; Renilla control light, replicate 1 = 1.77e6; Renilla control light, replicate 2 = 1.46e6; inactive.
Against CG30393 #2, the entry reads firefly reporter light, replicate 1 = 7.12e5; firefly reporter light, replicate 2 = 6.89e5; Renilla control light, replicate 1 = 6.80e5; Renilla control light, replicate 2 = 7.45e5; inactive.
For CG4306 #1 the deposit lists firefly reporter light, replicate 1 = 2.91e5; firefly reporter light, replicate 2 = 2.95e5; Renilla control light, replicate 1 = 2.27e6; Renilla control light, replicate 2 = 2.54e6; inactive.
For CG4306 #2, the entry reads firefly reporter light, replicate 1 = 5.11e5; firefly reporter light, replicate 2 = 3.97e5; Renilla control light, replicate 1 = 1.30e6; Renilla control light, replicate 2 = 1.41e6; inactive.
Against spn-B #1 the deposit lists firefly reporter light, replicate 1 = 1.13e5; firefly reporter light, replicate 2 = 1.28e5; Renilla control light, replicate 1 = 2.50e6; Renilla control light, replicate 2 = 2.01e6; inactive.
spn-B #2 showed firefly reporter light, replicate 1 = 3.30e5; firefly reporter light, replicate 2 = 4.04e5; Renilla control light, replicate 1 = 7.98e5; Renilla control light, replicate 2 = 7.27e5; inactive.
After knock-down of CG32425, the record shows firefly reporter light, replicate 1 = 41053; firefly reporter light, replicate 2 = 27903; Renilla control light, replicate 1 = 5.47e5; Renilla control light, replicate 2 = 4.26e5; inactive.
Silencing of Pisd came out at: firefly reporter light, replicate 1 = 1.16e5; firefly reporter light, replicate 2 = 1.02e5; Renilla control light, replicate 1 = 5.03e5; Renilla control light, replicate 2 = 5.49e5; inactive.
Knock-down of CG6933 came out at: firefly reporter light, replicate 1 = 69097; firefly reporter light, replicate 2 = 51498; Renilla control light, replicate 1 = 5.43e5; Renilla control light, replicate 2 = 3.29e5; inactive.
CAH5 showed firefly reporter light, replicate 1 = 1.65e5; firefly reporter light, replicate 2 = 1.12e5; Renilla control light, replicate 1 = 1.69e6; Renilla control light, replicate 2 = 2.32e6; inactive.
CG14692 gave firefly reporter light, replicate 1 = 1.77e5; firefly reporter light, replicate 2 = 2.17e5; Renilla control light, replicate 1 = 2.13e6; Renilla control light, replicate 2 = 2.26e6; inactive.
CG15125 scored firefly reporter light, replicate 1 = 88741; firefly reporter light, replicate 2 = 96269; Renilla control light, replicate 1 = 1.13e6; Renilla control light, replicate 2 = 1.63e6; inactive.
With knock-down of CG14743, the record shows firefly reporter light, replicate 1 = 3.26e5; firefly reporter light, replicate 2 = 2.59e5; Renilla control light, replicate 1 = 1.69e6; Renilla control light, replicate 2 = 1.29e6; inactive.
Pkn + Tsen15 #1 scored firefly reporter light, replicate 1 = 4.00e5; firefly reporter light, replicate 2 = 5.66e5; Renilla control light, replicate 1 = 1.27e6; Renilla control light, replicate 2 = 1.56e6; inactive.
Silencing of Pkn + Tsen15 #2 gave: firefly reporter light, replicate 1 = 2.99e5; firefly reporter light, replicate 2 = 3.19e5; Renilla control light, replicate 1 = 6.91e5; Renilla control light, replicate 2 = 8.36e5; inactive.
Against DCAF12, the values are firefly reporter light, replicate 1 = 48982; firefly reporter light, replicate 2 = 36070; Renilla control light, replicate 1 = 2.98e5; Renilla control light, replicate 2 = 4.02e5; inactive.

Looked up above.
Value of CG5500 #2 under “call”: inactive
Value for CG14743 under “firefly reporter light, replicate 1”: 3.26e5

The results go on.
Silencing of CG5079 gave: firefly reporter light, replicate 1 = 5.36e5; firefly reporter light, replicate 2 = 6.82e5; Renilla control light, replicate 1 = 9.08e5; Renilla control light, replicate 2 = 1.27e6; inactive.
CG2972 #1 scored firefly reporter light, replicate 1 = 76244; firefly reporter light, replicate 2 = 53689; Renilla control light, replicate 1 = 6.62e5; Renilla control light, replicate 2 = 6.57e5; inactive.
Against CG2972 #2, the values are firefly reporter light, replicate 1 = 6.63e5; firefly reporter light, replicate 2 = 4.18e5; Renilla control light, replicate 1 = 1.01e6; Renilla control light, replicate 2 = 8.10e5; inactive.
With knock-down of ru #1, the record shows firefly reporter light, replicate 1 = 36220; firefly reporter light, replicate 2 = 47200; Renilla control light, replicate 1 = 9.25e5; Renilla control light, replicate 2 = 8.95e5; inactive.
With knock-down of ru #2, the record shows firefly reporter light, replicate 1 = 1.84e5; firefly reporter light, replicate 2 = 3.18e5; Renilla control light, replicate 1 = 6.67e5; Renilla control light, replicate 2 = 1.24e6; inactive.
Depletion of CG14132 resulted in: firefly reporter light, replicate 1 = 2.12e5; firefly reporter light, replicate 2 = 2.21e5; Renilla control light, replicate 1 = 2.05e6; Renilla control light, replicate 2 = 2.98e6; inactive.
CG14085 showed firefly reporter light, replicate 1 = 1.99e5; firefly reporter light, replicate 2 = 1.71e5; Renilla control light, replicate 1 = 2.43e6; Renilla control light, replicate 2 = 1.60e6; inactive.
Evi5 #1 gave firefly reporter light, replicate 1 = 2.26e5; firefly reporter light, replicate 2 = 3.45e5; Renilla control light, replicate 1 = 3.04e6; Renilla control light, replicate 2 = 2.90e6; inactive.
Knock-down of Evi5 #2 gave: firefly reporter light, replicate 1 = 1.64e5; firefly reporter light, replicate 2 = 1.76e5; Renilla control light, replicate 1 = 5.27e5; Renilla control light, replicate 2 = 3.59e5; inactive.
